Results are given in words; binding and its absence hold for the method and conditions named. Binding seen in cells or lysates may run through a third protein. Some binding calls cover weakened binding; strength is not graded here.

By UniProt entry, the sequences of proteins in these tests, tags left out. Residues count along the entry.
UniProt P25788, residues 2-255: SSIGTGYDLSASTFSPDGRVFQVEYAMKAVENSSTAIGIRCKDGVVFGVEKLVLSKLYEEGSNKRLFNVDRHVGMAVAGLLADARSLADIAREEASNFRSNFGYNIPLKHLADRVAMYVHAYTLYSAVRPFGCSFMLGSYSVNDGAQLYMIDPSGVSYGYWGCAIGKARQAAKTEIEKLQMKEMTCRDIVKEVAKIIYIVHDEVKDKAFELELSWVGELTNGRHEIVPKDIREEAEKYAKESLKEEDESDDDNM

For assay [1], the target named is α7 subunit of the 20S proteasome, endogenous in ECV304 cells (human) (UniProt P25788). In words: co-immunoprecipitation with anti-PR-39 antibody, Western blot with anti-α7 mAb. For orientation: In western blotting, separated proteins are transferred to a membrane and probed.
Assay [2] has the same target. In words: co-immunoprecipitation from ECV304 transfectants.

B1: porcine PR-39 peptide (4th exon, amino acids 131 to 169) in pAS2-1 vector as yeast two-hybrid bait (peptide, not shown: large carriers)
chain: RRRPRPPYLPRPRPPPFFPPRLPPRIPPGFPPRFPPRFP
notes: Bait of the yeast two-hybrid assay; The 39 residues are amino acids 131 to 169 of the porcine precursor; also called PR-39 construct
Take B1: the binding result in assay [1] and in assay [2] was “binds” each time.

(Values after patent US7202212 (BETH ISRAEL DEACONESS MEDICAL CENTER, dated 2007).)
